Results on 24 compounds are retold here after PubChem BioAssay AID2810 (NMMLSC, 2010).

This is one part of the list. The main result of the screen is listed elsewhere. These columns were measured beside it and carry no call.

The experiment can be described thus: modulators of CD8 T cell-vesicle binding, confirmation, cherry-picked primary hits, two concentrations (AID 2810).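 On all read-outs here: lower values mean blocking of vesicle binding.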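 On percent response (vesicle binding): ratio of mean FL2 vesicle stain of CD8+ cells to that row's control.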 The note with it: 2C CD8+ T cell-vesicle binding, flow cytometry; for double positive events: CD8+/vesicle+ events.
Where [1] appears, read: at 15.4 µM, stronger effect = lower value.

Turning to `Cc1ccc(-c2n[nH]c(=S)n2-c2ccccc2)cc1`, under “at 7.7 µM”, the double positive events came out at 8.7% and the percent response (vesicle binding) is 438%. The double positive events under setting [1] is 31.7%.
On to `CN1CCN(S(=O)(=O)c2ccc(N3CCN(c4ccccc4Cl)CC3)nc2)CC1`, for which, for the setting “at 7.7 µM”, the double positive events came out at 13.7% and the percent response (vesicle binding) was found to be 149%. The same compound returned a double positive events under setting [1] of 22.2%.
On the same counts, the results for `O=C(CCC(=O)N1CCOCC1)NCc1cccc(C(F)(F)F)c1` are 11.9%, 427% and 4.9%.
The like results for `CCOc1ccc(C2CC(c3ccccc3C)n3nc(N)nc3N2)cc1` (configuration not stated) were, in that order, 28.4%, 116% and 15.8%.
The like results for `CC1CCCN(CC(=O)NC(=O)NC2CCCCC2)C1` (configuration not stated) were, in that order, 33.9%, 351% and 3.1%.
Under “at 7.7 µM”, `Cn1nc(-c2ccccc2)c(C#N)c1Sc1cccc(Cl)c1` displayed a double positive events of 22.6% and a percent response (vesicle binding) of 558%. The compound also gave a double positive events under setting [1] of 23.3%.
On to `COc1ccc(NC(=O)CSc2ccc(-c3ccccn3)nn2)cc1OC`, for which, under “at 7.7 µM”, the double positive events came to 27.4% and the percent response (vesicle binding) came out at 272%. In addition, the double positive events under setting [1] was determined as 7.9%.
For the setting “at 7.7 µM”, `Cc1ccccc1CNC1CCCCC1` registered a double positive events of 25.2% and a percent response (vesicle binding) of 368%. This compound returned a double positive events under setting [1] of 6.8%.
On the same counts, the results for `CN(C)C(CNS(=O)(=O)c1cc([N+](=O)[O-])ccc1Cl)c1ccco1` (configuration not stated) are 26%, 186% and 25.6%.
On the same counts, the results for `O=C(Cn1ncc2c(=O)oc3ccccc3c21)NCCCN1CCCC1=O` are 18.8%, 107% and 16.2%.
The like results for `Cc1ccc(NC(=O)COC(=O)CCc2c[nH]c3ccccc23)c(C)c1` were, in that order, 12.2%, 196% and 8.8%.
Under “at 7.7 µM”, `CCOc1cc(C(=O)NCc2ccc3c(c2)OCO3)cc(OCC)c1OCC` displayed a double positive events of 28.4% and a percent response (vesicle binding) of 224%. This compound also registered a double positive events under setting [1] of 12.2%.
The like results for `CCCCNc1c(-c2ccc(OC)c(SC(C)CC)c2)nc2cc(C)ccn12` (configuration not stated) were, in that order, 13.3%, 67.8% and 10.6%.
Where the note is “at 7.7 µM”, `Cc1ccc(N=CC=C2OC(C)(C)C(C)(C)O2)cc1` showed a double positive events of 12.5% and a percent response (vesicle binding) of 176%. The compound further registered a double positive events under setting [1] of 17.9%.
Turning to `Cc1cc(C)c(NC(=O)COC(=O)C2CCCCC2)c(C)c1`, under “at 7.7 µM”, the double positive events stood at 33.1% and the percent response (vesicle binding) was found to be 491%. For the same compound, the double positive events under setting [1] was determined as 6.7%.
For the setting “at 7.7 µM”, `S=c1[nH]nc(Cc2cccs2)n1-c1ccccc1` yielded a double positive events of 11.3% and a percent response (vesicle binding) of 193%. Further, the double positive events under setting [1] worked out at 19.8%.
Regarding `CCc1nnc(NC(=O)C2CCN(C(=O)NC3CCCCC3)CC2)s1`, where the note is “at 7.7 µM”, the double positive events stood at 15.2% and the percent response (vesicle binding) was 168%. In addition, the double positive events under setting [1] stood at 19.1%.
The like results for `CCCN1CC23C=CC(O2)C(C(=O)O)C3C1=O` (configuration not stated) were, in that order, 32.1%, 338% and 13%.
For the compound `CCOc1ccccc1-n1c(SCC(N)=O)nnc1-c1ccc(O)cc1`, the double positive events was 9.1% (at 7.7 µM) and 22% under setting [1]. Moreover, the percent response (vesicle binding) (at 7.7 µM) was found to be 139%.
On the same counts, the results for `C/C(=N\NC(=O)c1ccccc1[N+](=O)[O-])c1c(O)cc(C)oc1=O` are 16.1%, 22.8% and 318%.
The like results for `C=CCNC(=S)Nc1sc2c(c1C(N)=O)CCCC2` were, in that order, 7.7%, 10.4% and 141%.
Regarding `O=C1/C(=C/c2ccccc2)Oc2cc(OC(=O)N3CCOCC3)ccc21`, the double positive events was determined as 7.9% (at 7.7 µM) and 26.5% under setting [1]. Besides, the percent response (vesicle binding) (at 7.7 µM) came out at 182%.
On to `COc1ccccc1C(=O)COC(=O)C1CCN(S(=O)(=O)c2ccc(C)c(C)c2)CC1`, for which, where the note is “at 7.7 µM”, the double positive events was 14.5% and the percent response (vesicle binding) was 471%. Under setting [1], this compound showed a double positive events of 12.1%.
For `Cc1ccc(NC(=O)CN(C)C(=O)C(C)N2CCN(Cc3ccccc3C)CC2)cc1` (configuration not stated), under “at 7.7 µM”, the double positive events was found to be 11.6% and the percent response (vesicle binding) was 176%. This compound also yielded a double positive events under setting [1] of 23%.
